Results are given in words; binding and its absence hold for the method and conditions named. A result given as binding can be weak or reduced; the word gives no strength.

The assay addresses T1, IsdB NEAT1 (aa residues 144-270) (S. aureus SH1000) (UniProt Q2FZF0).
T1 sequence: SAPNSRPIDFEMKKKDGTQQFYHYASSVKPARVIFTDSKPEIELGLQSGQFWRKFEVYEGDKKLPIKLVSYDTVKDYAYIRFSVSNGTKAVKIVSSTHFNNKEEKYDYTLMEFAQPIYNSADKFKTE
Kind of assay: ELISA; IsdB NEAT1-NEAT2, NEAT1 or NEAT2 coated at 1 μg/well, A1 domain from 0 to 5 μg/well, detected with anti-human vWF IgG; both purified. Background: An ELISA detects its analyte on a solid surface through an enzyme-linked reagent.

Take “recombinant A1 domain of human von Willebrand factor (aa residues 460-730), 6xHis-tagged (domain or fragment)”: the binding entry is recorded as “binds”.

The values above are taken from publication PMC8611056.
